Data: paper PMC3184960
Results are given in words; binding and its absence hold for the method and conditions named. For some of these results: In cells and extracts the contact can be indirect. Some binding calls cover weakened binding; strength is not graded here. For some of these results: Tags and fused reporters may be left off the sequences shown.

Amino acid sequences for entries named in this document (tags omitted).
UniProt P03372: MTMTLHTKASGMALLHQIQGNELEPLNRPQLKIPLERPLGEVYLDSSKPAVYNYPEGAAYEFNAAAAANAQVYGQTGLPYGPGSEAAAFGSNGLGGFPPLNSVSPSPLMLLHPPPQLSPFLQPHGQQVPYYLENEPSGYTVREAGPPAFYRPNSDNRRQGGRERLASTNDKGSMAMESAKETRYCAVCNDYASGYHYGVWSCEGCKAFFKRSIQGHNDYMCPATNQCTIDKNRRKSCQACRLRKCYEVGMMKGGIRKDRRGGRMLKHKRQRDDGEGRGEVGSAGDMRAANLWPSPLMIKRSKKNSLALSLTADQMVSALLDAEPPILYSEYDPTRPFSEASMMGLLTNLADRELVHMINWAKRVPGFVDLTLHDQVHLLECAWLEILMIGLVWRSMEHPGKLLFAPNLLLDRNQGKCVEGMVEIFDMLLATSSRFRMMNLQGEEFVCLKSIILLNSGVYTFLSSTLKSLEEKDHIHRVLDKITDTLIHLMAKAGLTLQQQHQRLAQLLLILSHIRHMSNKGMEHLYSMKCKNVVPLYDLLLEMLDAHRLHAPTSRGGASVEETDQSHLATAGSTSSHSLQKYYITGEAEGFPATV

Legend:
[1] = molecular target: ERα, transfected in HeLa cells (UniProt P03372); assay: co-IP; HeLa cells co-transfected with cMyc-tagged XAP2 constructs and ERα, DMSO or 10 nM E2 for 1 h; Pierce classic IP kit, IP with ERα antibody, blot with c-Myc antibody
[2] = molecular target: ERα, endogenous in MCF-7 cells (human (endogenous in MCF-7)) (UniProt P03372); assay: Re-ChIP (sequential chromatin immunoprecipitation); MCF-7 cells, DMSO or 10 nM E2 for 45 min, cross-linked 15 min with 1.5% formaldehyde; chromatin precipitated in turn with XAP2 and ERα antibodies; PCR of pS2 and GREB1 promoter regions

Row | binding [1] | binding [2] | Binder
1 | binds | – | c-Myc-tagged wild-type XAP2 (protein, UniProt O00170 1-330) MADIIARLREDGIQKRVIQEGRGELPDFQDGTKATFHYRTLHSDDEGTVLDDSRARGKPMELIIGKKFKLPVWETIVCTMREGEIAQFLCDIKHVVLYPLVAKSLRNIAVGKDPLEGQRHCCGVAQMREHSSLGHADLDALQQNPQPLIFHMEMLKVESPGTYQQDPWAMTDEEKAKAVPLIHQEGNRLYREGHVKEAAAKYYDAIACLKNLQMKEQPGSPEWIQLDQQITPLLLNYCQCKLVVEEYYEVLDHCSSILNKYDDNVKAYFKRGKAHAAVWNAQEAQADFAKVLELDPALAPVVSRELRALEARIRQKDEEDKARFRGIFSH
2 | binds | – | c-Myc-tagged XAP2 V49M (protein, UniProt O00170 1-330) MADIIARLREDGIQKRVIQEGRGELPDFQDGTKATFHYRTLHSDDEGTMLDDSRARGKPMELIIGKKFKLPVWETIVCTMREGEIAQFLCDIKHVVLYPLVAKSLRNIAVGKDPLEGQRHCCGVAQMREHSSLGHADLDALQQNPQPLIFHMEMLKVESPGTYQQDPWAMTDEEKAKAVPLIHQEGNRLYREGHVKEAAAKYYDAIACLKNLQMKEQPGSPEWIQLDQQITPLLLNYCQCKLVVEEYYEVLDHCSSILNKYDDNVKAYFKRGKAHAAVWNAQEAQADFAKVLELDPALAPVVSRELRALEARIRQKDEEDKARFRGIFSH
3 | – | binds | XAP2, endogenous in MCF-7 cells (protein, UniProt O00170 1-330) MADIIARLREDGIQKRVIQEGRGELPDFQDGTKATFHYRTLHSDDEGTVLDDSRARGKPMELIIGKKFKLPVWETIVCTMREGEIAQFLCDIKHVVLYPLVAKSLRNIAVGKDPLEGQRHCCGVAQMREHSSLGHADLDALQQNPQPLIFHMEMLKVESPGTYQQDPWAMTDEEKAKAVPLIHQEGNRLYREGHVKEAAAKYYDAIACLKNLQMKEQPGSPEWIQLDQQITPLLLNYCQCKLVVEEYYEVLDHCSSILNKYDDNVKAYFKRGKAHAAVWNAQEAQADFAKVLELDPALAPVVSRELRALEARIRQKDEEDKARFRGIFSH
4 | binds | – | c-Myc-tagged XAP2 R271W (protein, UniProt O00170 1-330) MADIIARLREDGIQKRVIQEGRGELPDFQDGTKATFHYRTLHSDDEGTVLDDSRARGKPMELIIGKKFKLPVWETIVCTMREGEIAQFLCDIKHVVLYPLVAKSLRNIAVGKDPLEGQRHCCGVAQMREHSSLGHADLDALQQNPQPLIFHMEMLKVESPGTYQQDPWAMTDEEKAKAVPLIHQEGNRLYREGHVKEAAAKYYDAIACLKNLQMKEQPGSPEWIQLDQQITPLLLNYCQCKLVVEEYYEVLDHCSSILNKYDDNVKAYFKWGKAHAAVWNAQEAQADFAKVLELDPALAPVVSRELRALEARIRQKDEEDKARFRGIFSH
